Article doi:10.1101/2023.05.10.540157 (bioRxiv, 2023)
Results are given in words; binding and its absence hold for the method and conditions named. Binding seen in cells or lysates may run through a third protein. Some binding calls cover weakened binding; strength is not graded here.

Chains of the proteins cited; added tags and fusions are not shown.
UniProt P04150: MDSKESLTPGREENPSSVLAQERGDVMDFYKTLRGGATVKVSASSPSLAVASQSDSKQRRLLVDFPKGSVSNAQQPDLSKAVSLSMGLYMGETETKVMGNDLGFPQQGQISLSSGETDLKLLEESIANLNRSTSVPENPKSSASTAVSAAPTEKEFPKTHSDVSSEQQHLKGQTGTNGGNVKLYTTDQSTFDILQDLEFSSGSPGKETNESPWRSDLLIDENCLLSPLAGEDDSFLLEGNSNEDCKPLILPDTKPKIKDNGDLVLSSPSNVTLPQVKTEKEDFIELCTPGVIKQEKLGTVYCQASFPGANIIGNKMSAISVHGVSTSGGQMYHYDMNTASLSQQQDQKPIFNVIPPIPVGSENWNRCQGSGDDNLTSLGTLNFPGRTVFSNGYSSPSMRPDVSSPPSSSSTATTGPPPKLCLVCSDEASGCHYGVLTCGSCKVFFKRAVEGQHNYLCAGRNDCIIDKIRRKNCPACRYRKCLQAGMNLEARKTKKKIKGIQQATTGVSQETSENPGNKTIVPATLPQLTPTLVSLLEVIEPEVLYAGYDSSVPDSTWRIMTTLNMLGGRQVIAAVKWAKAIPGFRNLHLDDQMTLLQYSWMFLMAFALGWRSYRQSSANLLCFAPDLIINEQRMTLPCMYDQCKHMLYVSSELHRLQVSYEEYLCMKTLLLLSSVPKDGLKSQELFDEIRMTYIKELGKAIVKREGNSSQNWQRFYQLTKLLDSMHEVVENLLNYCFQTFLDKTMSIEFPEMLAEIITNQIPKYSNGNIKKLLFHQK
UniProt P08235: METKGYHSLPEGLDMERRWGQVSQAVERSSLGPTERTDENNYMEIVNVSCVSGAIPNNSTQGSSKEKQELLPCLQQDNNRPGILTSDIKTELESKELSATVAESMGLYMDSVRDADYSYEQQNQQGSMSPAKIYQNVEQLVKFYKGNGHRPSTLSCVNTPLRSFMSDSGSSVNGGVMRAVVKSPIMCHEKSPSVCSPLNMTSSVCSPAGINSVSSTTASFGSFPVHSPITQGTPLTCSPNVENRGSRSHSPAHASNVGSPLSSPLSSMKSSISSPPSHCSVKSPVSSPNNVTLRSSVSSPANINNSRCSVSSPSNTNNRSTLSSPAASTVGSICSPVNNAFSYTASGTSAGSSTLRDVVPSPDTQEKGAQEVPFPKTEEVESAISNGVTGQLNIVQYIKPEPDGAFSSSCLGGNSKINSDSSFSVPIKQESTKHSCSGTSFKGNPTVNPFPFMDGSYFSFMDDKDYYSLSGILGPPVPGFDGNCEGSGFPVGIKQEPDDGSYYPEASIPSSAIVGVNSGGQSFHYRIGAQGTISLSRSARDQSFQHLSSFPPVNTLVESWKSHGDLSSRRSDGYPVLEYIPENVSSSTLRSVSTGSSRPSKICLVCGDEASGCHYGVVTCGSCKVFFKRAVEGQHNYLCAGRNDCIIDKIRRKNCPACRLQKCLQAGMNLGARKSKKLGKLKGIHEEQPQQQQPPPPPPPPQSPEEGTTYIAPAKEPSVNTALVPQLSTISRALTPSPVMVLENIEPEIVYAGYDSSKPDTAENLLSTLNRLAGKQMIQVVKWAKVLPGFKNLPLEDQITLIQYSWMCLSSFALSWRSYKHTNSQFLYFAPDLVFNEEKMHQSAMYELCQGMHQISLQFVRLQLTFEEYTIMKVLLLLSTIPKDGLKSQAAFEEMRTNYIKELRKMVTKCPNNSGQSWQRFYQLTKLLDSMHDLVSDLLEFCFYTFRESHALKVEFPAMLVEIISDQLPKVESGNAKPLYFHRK

Assays:
[1] = target: endogenous glucocorticoid receptor (GR) (human (endogenous in MM1.S and OPM-2)) (UniProt P04150); test: co-IP
[2] = target: mineralocorticoid receptor (MR), NanoBiT fusion LgBiT-MR (UniProt P08235); test: split reporter

| Substance | binding [1] | binding [2] |
| --- | --- | --- |
| endogenous mineralocorticoid receptor (MR) (from UniProt P08235 1-984) | binds | – |
| mineralocorticoid receptor (MR), NanoBiT fusion LgBiT-MR (from UniProt P08235 1-984) | – | binds |
